Results are given in words; binding and its absence hold for the method and conditions named. In cells and extracts the contact can be indirect. Some binding calls cover weakened binding; strength is not graded here.
Experiments:
[1] = molecular target: Galectin-9 (endogenous, HCT116) (human (endogenous in HCT116)) (UniProt O00182); experiment: co-IP; endogenous proteins of HCT116 cells; immunoprecipitation with anti-Galectin-9, normal rabbit IgG as control; RIPA lysis buffer; Western blotting for ATXN3
[2] = molecular target: Flag-Galectin-9-human (human) (UniProt O00182); experiment: co-IP; transiently co-transfected HEK293/HEK293T cells; RIPA lysis buffer; immunoprecipitation with protein-G sepharose, five washes with PBS, Western blotting

Chains of the proteins cited; added tags and fusions are not shown.
UniProt P54252: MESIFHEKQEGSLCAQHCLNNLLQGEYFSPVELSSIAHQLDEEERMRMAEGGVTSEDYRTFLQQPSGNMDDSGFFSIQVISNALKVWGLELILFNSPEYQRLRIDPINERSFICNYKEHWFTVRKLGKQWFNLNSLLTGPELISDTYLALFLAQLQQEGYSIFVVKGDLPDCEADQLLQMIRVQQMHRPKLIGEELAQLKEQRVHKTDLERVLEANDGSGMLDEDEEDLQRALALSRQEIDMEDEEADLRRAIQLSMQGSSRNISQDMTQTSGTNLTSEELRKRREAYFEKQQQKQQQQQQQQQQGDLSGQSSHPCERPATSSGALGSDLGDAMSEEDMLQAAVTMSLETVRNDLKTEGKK

Substance	binding [1]	binding [2]
ATXN3 (endogenous, HCT116) (from UniProt P54252 1-361) (enzyme)	binds	–
Myc-ATXN3 (from UniProt P54252 1-361) (enzyme)	–	binds

Source: article PMC11254720
